Earlier results, collected in US20220370396A1, “METHODS FOR MODULATING CONDITIONS OF THE EYE USING NOVEL LATANOPROST COMPOUND OPHTHALMIC COMPOSITIONS” (Somerset Therapeutics LLC, priority 2021, published 2022).

Settings: patients starting on monotherapy; cited from earlier work

Row | Structure (SMILES) | Rate of adjunctive medication use
1 | CCNC(=O)CCC/C=C\C[C@@H]1[C@@H](/C=C/[C@@H](O)CCc2ccccc2)[C@H](O)C[C@@H]1O [bimatoprost] | 23.2%
2 | CC(C)OC(=O)CCC/C=C\C[C@@H]1[C@@H](CC[C@@H](O)CCc2ccccc2)[C@H](O)C[C@@H]1O [latanoprost, isopropyl (Z)-7[(1R,2R,3R,5S)3,5-dihydroxy-2-[(3R)-3-hydroxy-5-phenylpentyl]cyclopentyl]-5-heptanoate] | 30.2%
3 | CC(C)OC(=O)CCC/C=C\C[C@@H]1[C@@H](/C=C/[C@@H](O)COc2cccc(C(F)(F)F)c2)[C@H](O)C[C@@H]1O [travoprost] | 22.5%
